Here are results for 50 sequences from the supplement of paper PMC7877785.

The nature of the data set: self-splicing fitness, log relative to wild type (ln ratio); higher = more splicing; Tetrahymena group I intron in knt gene, E. coli kanamycin selection, DiMSum; sequences stand for … in CUCUCU…GGAGGGAAAAGUUAUCAGGCAUGCACCUGGUAGCUAGUCUUUAAACCAAUAGAUUGCAUCGGUUUAAAAGGCAAGACCGUCAAAUUGCGGGAAAGGGGUCAACAGCCGUUCAGUACCAAGUCUCAGGGGAAACUUUGAGAUGGCCUUGCAAAGGGUAUGGUAAUAAGCUGACGGACAUGGUCCUAACCACGCAGCCAAGUCCUAAGUCAACAGAUCUUCUGUUGAUAUGGAUGCAGUUCACAGACUAAAUGUCGGUCGGGGAAGAUGUAUUCUUCUCAUAAGAUAUAGUCGGACCUCUCCUUAAUGGGAGCUAGCGGAUGAAGUGAUGCAACACUGGAGCCGCUGGGAACUAAUUUGUAUGCGAAAGUAUAUUGAUUAGUUUUGGAGUACUCGUGGUCG
In short, it runs like this: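 DiMSum derived fitness as the error-weighted combination of fold changes across replicates, kanamycin versus no kanamycin, normalised to wild type. E. coli BL21(DE3) held the library, which randomised all eight P1ex-region intron nucleotides within the knt kanamycin-resistance gene on pET-22b(+). Six replicate transformations grew overnight at 37°C or 30°C on LB agar with or without 25 μg/mL kanamycin, also containing 100 μg/mL carbenicillin, 50 μM IPTG and 0.2% rhamnose, and pooled colonies were amplicon-sequenced on an Illumina HiSeq 2500.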

± gives the uncertainty stated by the source. Many entries were measured with a wide error.

For CACAAGCAAUAUUACGCCCA, the “self-splicing fitness (ln)” value is, setting by setting: (30 °C) -0.966 ± 0.091; (37 °C) 0.114 ± 0.09.

As for UUAUAGCAAUAUUACGGGGG, the “self-splicing fitness (ln)” value (37 °C) was -2.17 ± 0.64.

For GGUGAGCAAUAUUACGGUAA, the “self-splicing fitness (ln)” value (30 °C) was -3.66 ± 0.75.

On to CCGAAGCAAUAUUACGCGCU, for which, under “30 °C”, the “self-splicing fitness (ln)” value is -4.11 ± 0.61.

UUUGAGCAAUAUUACGAAUA: the “self-splicing fitness (ln)” value (37 °C) is -1.29 ± 1.2.

On to GUAGAGCAAUAUUACGUAGU, for which the “self-splicing fitness (ln)” value (30 °C) is -4.26 ± 0.59.

Regarding UACGAGCAAUAUUACGCUCG, the “self-splicing fitness (ln)” value (30 °C) was -4.17 ± 0.75.

Turning to GUGGAGCAAUAUUACGCCGG, the “self-splicing fitness (ln)” value (37 °C) is -2.36 ± 0.55.

Take GGUGAGCAAUAUUACGCGGG: the “self-splicing fitness (ln)” value is -3.98 ± 0.59 (30 °C) and -1.13 ± 0.71 (37 °C).

With AAGGAGCAAUAUUACGCUAC, the “self-splicing fitness (ln)” value (37 °C) was -1.74 ± 0.65.

For AGAGAGCAAUAUUACGCGAU, where the note is “30 °C”, the “self-splicing fitness (ln)” value is -4.9 ± 0.72.

In the case of UGGGAGCAAUAUUACGUACG, the “self-splicing fitness (ln)” value was -2.41 ± 0.26 (30 °C) and -2.34 ± 0.21 (37 °C).

For the sequence GGCAAGCAAUAUUACGGCAG, the “self-splicing fitness (ln)” value (30 °C) is -2.32 ± 0.14 and the “self-splicing fitness (ln)” value (37 °C) was -1.15 ± 0.15.

On to AUAUAGCAAUAUUACGAGGG, for which, where the note is “37 °C”, the “self-splicing fitness (ln)” value is -1.88 ± 1.2.

Consider AGAGAGCAAUAUUACGCUAA, for which, under “30 °C”, the “self-splicing fitness (ln)” value was -3.41 ± 0.74.

On to UCAGAGCAAUAUUACGGAAA, for which the “self-splicing fitness (ln)” value (30 °C) was -3.12 ± 1.1.

Regarding CGAGAGCAAUAUUACGCUGG, under “37 °C”, the “self-splicing fitness (ln)” value is -1.85 ± 0.65.

As for UUUUAGCAAUAUUACGCCCG, under “37 °C”, the “self-splicing fitness (ln)” value is -0.315 ± 0.52.

UAGCAGCAAUAUUACGGAGG: the “self-splicing fitness (ln)” value reads like this: (30 °C) -3.29 ± 0.15; (37 °C) -2.6 ± 0.22.

CAUCAGCAAUAUUACGUGAA: the “self-splicing fitness (ln)” value was -0.729 ± 0.055 (30 °C) and -0.211 ± 0.09 (37 °C).

As for UGUGAGCAAUAUUACGACUC, where the note is “37 °C”, the “self-splicing fitness (ln)” value was -1.13 ± 1.2.

For CGGGAGCAAUAUUACGCGGU, the “self-splicing fitness (ln)” value (30 °C) is -3.48 ± 0.52.

In the case of GGUGAGCAAUAUUACGCAAA, the “self-splicing fitness (ln)” value runs as follows: (30 °C) -1.76 ± 0.6; (37 °C) -1.71 ± 0.52.

For the sequence GCAGAGCAAUAUUACGACCU, the “self-splicing fitness (ln)” value (30 °C) is -1.27 ± 0.91.

Turning to AGCCAGCAAUAUUACGUCAC, the “self-splicing fitness (ln)” value (30 °C) is -3.72 ± 0.73.

AAAAAGCAAUAUUACGAAGC: under “30 °C”, the “self-splicing fitness (ln)” value was -3.18 ± 0.52.

Regarding AAUGAGCAAUAUUACGUAGC, the “self-splicing fitness (ln)” value (30 °C) is -2.91 ± 0.2 and the “self-splicing fitness (ln)” value (37 °C) is -2.05 ± 0.36.

Regarding UCGGAGCAAUAUUACGGAUC, the “self-splicing fitness (ln)” value (37 °C) was -2.02 ± 0.56.

For the sequence UUCUAGCAAUAUUACGGACC, for the setting “37 °C”, the “self-splicing fitness (ln)” value is -2.09 ± 0.65.

GAAGAGCAAUAUUACGUAGG: the “self-splicing fitness (ln)” value was -3.14 ± 0.33 (30 °C) and -1.99 ± 0.19 (37 °C).

Turning to GGGAAGCAAUAUUACGCACC, the “self-splicing fitness (ln)” value (37 °C) was -0.594 ± 0.78.

AAACAGCAAUAUUACGGUUG: the “self-splicing fitness (ln)” value was -1.99 ± 0.061 (30 °C) and -0.629 ± 0.075 (37 °C).

Take GGUGAGCAAUAUUACGAAGA: the “self-splicing fitness (ln)” value (37 °C) is -2.76 ± 1.1.

Take GCGGAGCAAUAUUACGUUCU: the “self-splicing fitness (ln)” value was -4.04 ± 1 (30 °C) and -1.35 ± 0.55 (37 °C).

For CACAAGCAAUAUUACGCAGC, for the setting “37 °C”, the “self-splicing fitness (ln)” value is -3.88 ± 0.72.

With GAUGAGCAAUAUUACGAAUU, for the setting “37 °C”, the “self-splicing fitness (ln)” value was -3.58 ± 1.

Regarding ACGGAGCAAUAUUACGCUAA, the “self-splicing fitness (ln)” value (30 °C) is -2.57 ± 0.77.

As for GCGCAGCAAUAUUACGCAAG, the “self-splicing fitness (ln)” value (30 °C) is -3.82 ± 0.23 and the “self-splicing fitness (ln)” value (37 °C) is -2.52 ± 0.15.

On to AUUGAGCAAUAUUACGAUCC, for which the “self-splicing fitness (ln)” value (37 °C) is -1.47 ± 1.2.

As for UCCGAGCAAUAUUACGACCA, the “self-splicing fitness (ln)” value runs as follows: (30 °C) -3.19 ± 1.2; (37 °C) -2.22 ± 0.55.

Turning to ACGUAGCAAUAUUACGCGUU, for the setting “30 °C”, the “self-splicing fitness (ln)” value was -4.72 ± 0.51.

GUAUAGCAAUAUUACGGAAG: the “self-splicing fitness (ln)” value (37 °C) was -1.92 ± 0.27.

As for CUUAAGCAAUAUUACGAGCU, where the note is “37 °C”, the “self-splicing fitness (ln)” value was -3.13 ± 0.74.

Regarding CUGGAGCAAUAUUACGGAAG, the “self-splicing fitness (ln)” value (30 °C) is -3.48 ± 0.41 and the “self-splicing fitness (ln)” value (37 °C) is -1.45 ± 0.28.

GAGGAGCAAUAUUACGCUGU: the “self-splicing fitness (ln)” value (30 °C) is -2.65 ± 0.88.

As to AGGCAGCAAUAUUACGCUCU, for the setting “37 °C”, the “self-splicing fitness (ln)” value was -1.8 ± 0.6.

For the sequence GGAGAGCAAUAUUACGCACA, for the setting “30 °C”, the “self-splicing fitness (ln)” value was -2.74 ± 0.67.

With UUAUAGCAAUAUUACGCAUC, the “self-splicing fitness (ln)” value runs as follows: (30 °C) -2.25 ± 0.68; (37 °C) -2.21 ± 0.65.

Take GUGGAGCAAUAUUACGAGUC: the “self-splicing fitness (ln)” value (30 °C) is -4.76 ± 0.72.

Take CAUGAGCAAUAUUACGAUCC: the “self-splicing fitness (ln)” value reads like this: (30 °C) -4.17 ± 0.59; (37 °C) -2.16 ± 0.55.
